Laboratory results as given in patent publication US11786600B2, “Cliptac composition” (OTSUKA PHARMACEUTICAL CO., LTD., priority 2016, dated 2023).

Assay: Bioorthogonal click reaction in vitro followed by LC-MS
Settings: 1:1 ratio in DMSO

| Structure (SMILES) | Time to complete bioorthogonal reaction with Tz-thalidomide [min] |
| --- | --- |
| Cc1sc2c(c1C)C(c1ccc(Cl)cc1)=N[C@@H](CC(=O)NCCCNC(=O)OC1CC/C=C/CCC1)c1nnc(C)n1-2 (stereo partly drawn) [JQ1-TCO, (4E)-Cyclooct-4-en-1-yl N-(3-{2-[(9S)-7-(4-chlorophenyl)-4,5,13-trimethyl-3-thia-1,8,11,12-tetraazatricyclo[8.3.0.0^2,6]trideca-2(6),4,7,10,12-pentaen-9-yl]acetamido}propyl)carbamate] | ≤ 15 |
| C=CC(=O)Nc1ccccc1Nc1nc(Nc2ccnc(C#CCCNC(=O)OC3CC/C=C/CCC3)c2)ncc1Cl (centres unmarked) [Probe 1, (4E)-Cyclooct-4-en-1-yl N-(4-{4-[(5-chloro-4-{[2-(prop-2-enamido)phenyl]amino}pyrimidin-2-yl)amino]pyridin-2-yl}but-3-yn-1-yl) carbamate] | ≤ 15 |
